{
  "source": "patent US20230117859A1",
  "about": "“INHALED XENON THERAPY IN NEURODEGENERATIVE DISEASE” (The Brigham and Women`s Hospital, Inc., priority 2020, published 2023)",
  "origin": "cited, not measured here",
  "conditions": "cited from earlier work",
  "note": "At least one compound was matched to its structure with a doubt left.",
  "data": [
    {"smiles": "[Xe]", "note": "[Xenon]", "values": [
      {"measurement": "blood brain barrier penetration", "value": "penetrates the blood brain barrier"}
    ]}
  ]
}
